# Test results published in PubChem BioAssay AID504444 (National Center for Advancing Translational Sciences (NCATS), 2011).
# Hit rate of the full screen: of about 360,000 compounds, about 7,500 (2.1%) were called active. The inconclusive results got no clear call from the source; some entries with a clear call stand among them for comparison. Calls follow the shape of the dose curve; as a rule, active = well fitted inhibition curve with a large enough effect; inconclusive = small, poorly fitted or top-dose-only effect, or effect the other way; inactive = flat fitted curve, though single readings scatter. Potencies of inconclusive entries are doubtful fits and often do not repeat.
# Assay: Nrf2 qHTS screen for inhibitors; also: nearly all actives have a fitted effect of over 60% in size
# Conditions: A549 ARE-Fluc reporter, luciferase luminescence, 18-24 h; activity change, negative = inhibition: at 46 µM (top of the series)
# How it was run: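 A549 ARE_Fluc cells, 5000/well, 5% FBS OPTI-MEM; compounds in dose-response, 18-24 h at 37 °C/5% CO2; CellTiter-Fluor viability read (Ex 405/Em 525), then BugLite luciferase luminescence = Nrf2 activity.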
# % is scaled to controls: 0 for no effect and ±100 for the full control effect; potency is read from the fitted curve at half-maximal effect.
Structure (SMILES),Potency,"activity change, negative = inhibition"
Cc1ccc(N2CCN(C(=O)N3CCOCC3)CC2)c(C)c1,"inconclusive: 0.651 µM [activator, full curve, poor fit]",
CC(C)Oc1cccc(C(=O)C2CCCN(C(=O)c3noc4c3CCCC4)C2)c1 (stereo not given),"inconclusive: 23.1 µM [falling, single point]",
COc1ccc(OC)c(CCNc2ncnc3onc(-c4ccc(Cl)cc4)c23)c1,"inconclusive: 32.6 µM [falling, single point]",
CCCCn1c(=O)[nH]c(=O)c2c1nc(-c1cc(Br)ccc1OC)n2C,"inconclusive: 23.1 µM [falling, partial curve, poor fit]",
Cc1ccnc(NC(=O)c2ccc3c(c2)C(=O)N(CC(C)C)C3=O)c1,"inconclusive: 4.11 µM [activator, partial curve]",
COc1ccc(C(=O)/C=C(\C)Nc2ccc(NC(C)=O)cc2)cc1,"inconclusive: 20.6 µM [activator, single point]",
CCN(CC)c1ccc(/C=C(\C#N)c2ccccn2)cc1,"inconclusive: 0.206 µM [activator, full curve, poor fit]",
Cc1[nH]n(C(N)=S)c(=O)c1N=Nc1cc(C(F)(F)F)ccc1Cl,"inconclusive: 20.6 µM [falling, single point]",
Cc1ccccc1NC(=O)c1cc(C(=O)c2cc(Cl)ccc2O)cn(-c2ccccc2C)c1=O,,inactive: -17.7%
Fc1ccccc1COc1ccc(C(=S)N2CCCC2)cc1,"inconclusive: 29.1 µM [falling, single point]",
O=C(c1ccccc1Cl)n1nc(-c2ccco2)nc1NCc1cccs1,"inconclusive: 4.61 µM [falling, full curve, poor fit]",
COc1ccc(-c2[nH]c(-c3ccc(Cl)cc3)nc2SCC(=O)Nc2nccs2)cc1,"inconclusive: 13 µM [falling, partial curve]",
COc1ccc(/C=N/Nc2ccc(C(=O)O)cc2)cc1Br,"inconclusive: 0.366 µM [activator, full curve]",
Cc1ccc(/C=N/NC(=O)CN(Cc2ccccc2)S(=O)(=O)c2ccc3c(c2)OCCO3)cc1,"inconclusive: 29.1 µM [falling, single point]",
CC1=NNC(=O)/C1=C\c1cn(-c2ccccc2)nc1-c1ccc(Cl)cc1,active: 13 µM,
COc1cc(SC)ccc1C(=O)N1CCN(Cc2ccc3c(c2)OCO3)CC1,active: 14.6 µM,
O=C(Nc1cc(Br)ccc1O)c1cc(-c2cccs2)on1,"inconclusive: 14.6 µM [falling, partial curve, poor fit]",
CN(Cc1nc2ccccc2c(=O)[nH]1)Cc1nc2ccsc2c(=O)[nH]1,"inconclusive: 0.206 µM [activator, full curve, poor fit]",
CC(C)c1cc(O)c(-c2ccccc2)c(=O)n1-c1ccc(Cl)cc1,"inconclusive: 14.6 µM [falling, single point]",
Cc1cc(C)cc(NC(=O)CSc2nc(N)c(NC(=O)c3cccs3)c(=O)[nH]2)c1,,inactive: -7.76%
CCN1CCN(CC(=O)Nc2c(OC)cccc2OC)CC1,,inactive: -6.34%
COC(=O)C1CCN(C(=O)c2oc3c(Cl)cc(C)cc3c2C)CC1,,inactive: -9.1%

Structure (SMILES),Potency,"activity change, negative = inhibition"
Cc1cc(NC(=O)c2ccc3c(c2)OCCO3)ccc1NC(=O)c1ccco1,"inconclusive: 10.3 µM [activator, partial curve, poor fit]",
COc1ccc(CNC(=O)c2cc3c(=O)n(Cc4ccco4)ccc3nc2C)c(OC)c1,,inactive: 0.462%
Cc1onc(-c2ccccc2Cl)c1C(=O)N1CCN(c2ccc(F)cc2)CC1,"inconclusive: 2.31 µM [falling, full curve]",
O=C(Nc1nc(-c2ccc3c(c2)OCO3)cs1)c1ccncc1,"inconclusive: 20.6 µM [falling, partial curve, poor fit]",
Cc1ccccc1CS(=O)(=O)c1ccc(C(=O)N2CCOCC2)cc1[N+](=O)[O-],"inconclusive: 29.1 µM [falling, single point]",
CCCn1nnc(NC(=O)c2ccc3ccccc3c2)n1,"inconclusive: 9.2 µM [activator, single point]",
COc1ccc(-c2c(-c3ccccc3)n(C)c3ccccc23)cc1,"inconclusive: 29.1 µM [activator, single point]",
COc1ccc(-c2csc(-c3cccnc3)n2)cc1C,"inconclusive: 29.1 µM [activator, single point]",
Cc1cc(S(=O)(=O)Nc2ccc3ccccc3c2)c(C)s1,,inactive: -114%
CSc1ccc(NC(=O)Nc2cccn(Cc3ccccc3F)c2=O)cc1,"inconclusive: 29.1 µM [falling, single point]",
O=C(c1ccco1)N1CCN(C(=O)c2ccccc2NS(=O)(=O)c2ccc(F)cc2)CC1,"inconclusive: 29.1 µM [falling, single point]",
CCOc1ccc(Oc2ccc(Cl)cc2NC(=O)C2=COCCO2)cc1,"inconclusive: 14.6 µM [falling, partial curve, poor fit]",
O=C(Nc1nccs1)c1ccc(Br)c(S(=O)(=O)N2CCCC2)c1,"inconclusive: 20.6 µM [falling, single point]",
CCN(CC(=O)NCc1ccc(F)cc1)C(=O)c1cccc(S(=O)(=O)N(C)c2ccc(OC)cc2)c1,"inconclusive: 29.1 µM [falling, single point]",
Clc1cccc2sc(N3CCOCC3)nc12,"inconclusive: 32.6 µM [activator, single point]",
O=[N+]([O-])c1cnccc1NC1CCCCC1,"inconclusive: 16.4 µM [falling, partial curve, poor fit]",
N#C/C(=C/c1ccc(Sc2nc3ccccc3[nH]2)o1)c1ccccc1F,"inconclusive: 29.1 µM [falling, single point]",
CC(C)c1ccc(/C=N/Nc2cc(N3CCOCC3)nc(N3CCOCC3)n2)cc1,,inactive: 1.05%
CCc1nc(SCC(=O)N2CC(=O)Nc3ccccc32)c2c(C)c(C)sc2n1,"inconclusive: 20.6 µM [falling, single point]",
CCN(CC)S(=O)(=O)c1ccc2c(c1)N(CC(=O)Nc1ccc(Cl)cc1)C(=O)C1CCCN21 (stereo not given),"inconclusive: 18.4 µM [activator, partial curve, poor fit]",
c1nc(N2CCCCC2)c2[nH]cnc2n1,"inconclusive: 18.4 µM [falling, partial curve, poor fit]",
CCn1nnnc1SCC(=O)Nc1ccc2c(c1)OCO2,"inconclusive: 7.31 µM [activator, partial curve, poor fit]",

Structure (SMILES),Potency,"activity change, negative = inhibition"
COc1cc(/C=C(\CC(=O)O)c2nc3ccccc3s2)cc(OC)c1O,,inactive: 2.33%
COc1cccc(N2CCN(C(=O)c3cnc4c(-c5ccc(F)cc5)c(C)nn4c3C)CC2)c1,"inconclusive: 29.1 µM [falling, single point]",
COc1ccc(-c2csc(NC(=S)NC(=O)c3ccc(S(=O)(=O)N(C)C)cc3)n2)cc1OC,"inconclusive: 29.1 µM [falling, single point]",
COc1cc(OC)cc(C(=O)NCCNc2nc3cc(C)cc(C)c3cc2C#N)c1,"inconclusive: 20.6 µM [falling, partial curve, poor fit]",
O=C(Nc1ccc(-c2nc3c(ccc4ccccc43)o2)cc1)c1ccco1,,inactive: -15.2%
O=C(N/N=C/c1ccccn1)c1cc(-c2ccc(Cl)cc2)nc2ccccc12,active: 9.2 µM,
COc1ccc2oc(=Nc3ccccc3)c(-c3nc4ccccc4[nH]3)cc2c1,"inconclusive: 20.6 µM [activator, single point]",
S=C(NCCCN1CCOCC1)N1CCN(c2nc(-c3ccc(Cl)cc3)cs2)CC1,active: 13 µM,
COc1ccc(C2=CCN3CCCCC3C2)c(-c2ccc(OC)c(OC)c2)c1 (stereo not given),"inconclusive: 23.1 µM [activator, single point]",
O=C(Nc1nc(-c2ccc(Oc3ccccc3)cc2)cs1)C1=COCCO1,"inconclusive: 16.4 µM [falling, single point]",
Cc1ccc(-c2noc(C3CCCN(C(=O)c4ccccc4)C3)n2)o1 (stereo not given),"inconclusive: 2.59 µM [activator, full curve]",
CC(C)(C)c1cc(CSC(=S)NC2CCS(=O)(=O)C2)c(Br)c(C(C)(C)C)c1 (stereo not given),"inconclusive: 25.9 µM [falling, single point]",
CCCCN1C(=O)C(O)(CC(=O)c2ccc(CC)cc2)c2cc(Br)ccc21 (stereo not given),"inconclusive: 32.6 µM [falling, single point]",
O=C(Nc1ccc(NC(=O)C23CC4CC(CC(C4)C2)C3)cn1)c1ccco1,"inconclusive: 2.91 µM [activator, full curve]",
Cc1ccc(Cn2ncc3c(NCCCN4CCOCC4)ncnc32)cc1,,inactive: -21.1%
COc1ccc(NC(=S)NCc2ccccc2Cl)c(OC)c1,active: 23.1 µM,
CC1CCN(c2ccc3c(c2)S(=O)(=O)c2ccccc2C3=O)CC1,"inconclusive: 2.31 µM [activator, full curve]",
C=CCN(c1ccccc1)S(=O)(=O)c1cccc(C(=O)N(CC)CC(=O)Nc2c(F)cccc2F)c1,"inconclusive: 16.4 µM [falling, partial curve, poor fit]",
O=C(Nc1cccc(O)c1)c1c(O)c2ccccc2[nH]c1=O,"inconclusive: 18.4 µM [activator, partial curve]",
CCOC(=O)C(C)N1C(=O)S/C(=C/c2ccc3c(c2)n(C)c(=O)n3C)C1=O (stereo not given),active: 20.6 µM,
CCOC(=O)CN(C(=O)CSc1nnc(-c2cccc(OC)c2)o1)c1ccc(F)cc1,"inconclusive: 18.4 µM [falling, single point]",

# 2 entries from above, set out differently.
Structure (SMILES)	Potency	activity change, negative = inhibition
COc1cc(OC)cc(C(=O)NCCNc2nc3cc(C)cc(C)c3cc2C#N)c1	inconclusive: 20.6 µM [falling, partial curve, poor fit]	
O=C(Nc1ccc(-c2nc3c(ccc4ccccc43)o2)cc1)c1ccco1		inactive: -15.2%

# Nothing new here: an excerpt of the list.
Structure (SMILES),Potency,"activity change, negative = inhibition"
CC1CCN(c2ccc3c(c2)S(=O)(=O)c2ccccc2C3=O)CC1,"inconclusive: 2.31 µM [activator, full curve]",
C=CCN(c1ccccc1)S(=O)(=O)c1cccc(C(=O)N(CC)CC(=O)Nc2c(F)cccc2F)c1,"inconclusive: 16.4 µM [falling, partial curve, poor fit]",
